Measurements from paper PMC10619556, “Comprehensive Evaluation System for Post-Metabolic Activity of Potential Thyroid-Disrupting Chemicals” (Journal of Microbiology and Biotechnology, 2023).

System: thyroid hormone receptor (THR)
Experiment: hTRE_HeLa THR transcriptional activity (nano luciferase reporter) assay with rat liver S9 mixtures
Format: cell-based, human
Settings: hTRE_HeLa cells; phase I+II group; 10 uM T3-biotransformant; greatest activity; mean ± SD
Method: The hTRE_HeLa cell line, obtained from the MFDS, was used to detect thyroid hormone receptor (THR) agonists through transcriptional activation analysis, utilizing a stably modified thyroid receptor-reactive human cervical cancer cell line along with one plasmid from a nano luciferase reporter. For cell line maintenance, minimum essential media (MEM, Gibco, USA) supplemented with 10% FBS, 1% penicillin/streptomycin (P/S), and 1 ml Hygromycin B (InvivoGen, USA) was used. The hTRE_Hela cell line was conditioned and treated in test medium containing Phenol red free of MEM (Gibco) supplemented with 10% charcoal-stripped FBS (CS-FBS), 1% P/S, and 1 mL Hygromycin B. hTRE_HeLa cells were maintained in 37°C and 5% CO2 incubator. hTRE_HeLa cells were seeded with 5 × 10^3 cells per well in the 96-well plate for 24 h and treated with EDCs and S9 mixtures for 48 h. […]
In the hTRE_Hela THR transcriptional activity assay, 100 nM of T3 was used as a positive control (PC). […] After a 10 min incubation, the luciferase activity was measured using a luminescence reader (Glomax Discover, Promega). […] The % to PC value of EDCs was calculated to (EDCs – VCtest) / (PC – VCcontrol). […] If the EDC was greater than or equal to 10% of PC, the EDC was determined to be a THR agonist-positive chemical. […]

`N[C@@H](Cc1cc(I)c(Oc2ccc(O)c(I)c2)c(I)c1)C(=O)O` [T3, 3,3’,5-triiodo-L-thyronine] was tested, and the “THR transcriptional activity compared to the activity of 100 nM T3” value was 309.1 ± 17.3%.
